These results are taken from PubChem BioAssay AID1487 (National Center for Advancing Translational Sciences (NCATS), 2009).

This test is described as follows: qHTS Assay for Modulators of Lamin A Splicing. Conditions: HeLa LMNA splicing GFP/RFP minigene ratio, 48 h. In short, it runs like this:
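S3 HeLa stable clones carrying a lamin A-EGFP splicing minigene plus DsRed2 were seeded at 600 cells/well in Opti-MEM with 2% FBS, pin-dosed and incubated 48 h at 37°C. Acumen cytometry (488 nm) gave the GFP/RFP total-intensity ratio.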
(In general: In qHTS, concentration-response curves come from the screen itself.)

The mark [1] stands for this setting: measured here: RFP viability control channel.
[2] abbreviates: measured here: GFP splicing reporter channel.

Each structure is given as a SMILES string. Some of the results follow. Further columns of the screen follow, without active or inactive calls. The list favours compounds with an active or inconclusive main result. The note in brackets gives the kind of curve behind each potency; many fits are weak.

With `COc1ccc(C2C=C(c3ccccc3)Nc3nnnn32)cc1` (configuration not stated), under setting [1], the AC50 is 31.6 µM [rising, single point].
With `CN1CCCN(C(=O)C2CCCCC2)CC1`, the AC50 under setting [1] was 0.0501 µM [rising, full curve, poor fit].
Turning to `COc1ccc(N2Cc3ccccc3C2=NC(=O)c2cncc(Br)c2)cc1`, the AC50 was 0.0501 µM [rising, full curve, poor fit] under setting [2] and 0.0501 µM [rising, full curve, poor fit] under setting [1].
Consider `CCc1noc(C)c1C(=O)Nc1nc(-c2ccc(Cl)cc2Cl)cs1`, for which the AC50 under setting [1] was 12.6 µM [rising, partial curve].
With `CN(C)c1ncnc2ccc(-c3cccc(NS(C)(=O)=O)c3)cc12`, the AC50 was 11.2 µM [falling, partial curve] under setting [2] and 11.2 µM [falling, partial curve] under setting [1].
In the case of `Cc1n[nH]c(C)c1S(=O)(=O)N1CCCC(C(=O)N2CCN(c3ccc(Cl)cc3)CC2)C1` (configuration not stated), the AC50 is 2.24 µM [rising, partial curve] under setting [2] and 12.6 µM [rising, partial curve] under setting [1].
On to `O=C1C(Cc2cccc([N+](=O)[O-])c2)SC(=Nc2ccccc2)N1c1ccccc1` (configuration not stated), for which, under setting [1], the AC50 is 7.94 µM [rising, single point].
In the case of `COc1ccc(-c2nc3cnc(Nc4ccccc4)nc3n(C[C@H]3CCCO3)c2=O)cc1`, the AC50 under setting [2] was 22.4 µM [falling, partial curve] and the AC50 under setting [1] is 22.4 µM [falling, partial curve].
On to `COc1cccc(Nc2ncc3nc(C)c(=O)n(Cc4cccs4)c3n2)c1`, for which the AC50 is 10 µM [falling, partial curve] under setting [2] and 11.2 µM [falling, partial curve] under setting [1].
With `CCCCNC(=S)NNC(=O)c1csc(C)c1C`, the AC50 under setting [2] was 35.5 µM [rising, single point].
For `O=C(Nc1nc2ccc(F)cc2s1)c1cccc(S(=O)(=O)N2CCc3ccccc32)c1`, under setting [1], the AC50 was 22.4 µM [rising, single point].
Take `Cc1noc(C)c1C(=O)OCC(=O)c1cc(C)n(Cc2ccccc2Cl)c1C`: under setting [1], the AC50 was 17.8 µM [rising, single point].
As for `COc1ccccc1C(=O)NCC(c1ccc(N(C)C)cc1)N1CCc2ccccc21` (configuration not stated), the AC50 under setting [2] was 12.6 µM [falling, single point].
On to `CCN(CC)S(=O)(=O)c1ccc(Cl)c(NC(=O)c2ccc(C#N)cc2)c1`, for which the AC50 under setting [1] was 25.1 µM [rising, single point].
On to `N=C(N)c1ccc(OCCCCCOc2ccc(C(=N)N)cc2)cc1` (tested in a mixture with another compound), for which the AC50 under setting [2] was 35.5 µM [falling, single point] and the AC50 under setting [1] is 25.1 µM [falling, single point].
For the compound `CCOc1cc(NC(=S)NCC2CCCO2)c(OCC)cc1NC(=O)c1ccc(OC)cc1` (configuration not stated), under setting [1], the AC50 was 35.5 µM [rising, single point].
Turning to `O=C(COc1ccc(Cl)cc1Cl)NN=C1c2ccccc2-c2ccccc21`, the AC50 under setting [1] was 2.24 µM [rising, partial curve, poor fit].
On to `Cc1cc(C)c(NC(=O)CN)c(C)c1`, for which the AC50 runs as follows: under setting [2], 22.4 µM [falling, partial curve, poor fit]; under setting [1], 22.4 µM [falling, partial curve, poor fit].
As to `CC(C)=C1C2CCC1C1C(=O)N(NC(=O)COc3ccc(C(C)(C)C)cc3)C(=O)C21` (configuration not stated), the AC50 under setting [1] is 15.8 µM [rising, single point].
Same read-out and setting: then `O=C(Cn1nc(Cc2cccnc2)c2ccccc2c1=O)NCC1CCCO1` (configuration not stated), with 0.794 µM [rising, full curve, poor fit].
Turning to `Cc1ccc(NC(=S)N/N=C/c2c(C)[nH]c3ccccc23)cc1`, the AC50 is 22.4 µM [falling, partial curve, poor fit] under setting [2] and 20 µM [falling, partial curve, poor fit] under setting [1].
`CC1=Nc2ccccc2/C1=C/c1nc(-c2ccc(C)s2)oc1O`: the AC50 under setting [1] is 15.8 µM [rising, partial curve, poor fit].
For the compound `Cc1ccccc1S(=O)(=O)NC1OC(=O)C(Oc2ccccc2)=C1Br` (configuration not stated), the AC50 under setting [2] was 35.5 µM [falling, single point].
As to `COc1ccc(NS(=O)(=O)c2cc(NC(=O)[C@@H](NC(=O)c3ccccc3)C(C)C)ccc2C)cc1`, under setting [1], the AC50 was 12.6 µM [rising, partial curve, poor fit].
As for `COc1ccc(OC)c(NC(=O)c2cc3oc4ccccc4c3cc2O)c1`, the AC50 runs as follows: under setting [2], 7.94 µM [falling, partial curve, poor fit]; under setting [1], 10 µM [falling, partial curve, poor fit].
For the compound `COc1cc(/C=C2\SC(=Nc3ccccc3)N(Cc3ccco3)C2=O)ccc1OC(C)C(=O)O` (configuration not stated), the AC50 was 10 µM [falling, partial curve, poor fit] under setting [2] and 5.62 µM [falling, full curve, poor fit] under setting [1].
Regarding `CCOC(=O)C1(Cc2cccc(OC)c2)CCCN(C(=O)c2cc(C)[nH]n2)C1` (configuration not stated), the AC50 under setting [2] was 5.01 µM [falling, partial curve, poor fit] and the AC50 under setting [1] was 3.55 µM [falling, partial curve, poor fit].
For `CCC(c1nnnn1Cc1ccco1)N1CCN(c2cc(Cl)ccc2C)CC1` (configuration not stated), under setting [2], the AC50 was 35.5 µM [rising, single point].
On to `Nc1nnc(CSCc2ccc(Cl)cc2Cl)s1`, for which the AC50 under setting [2] was 0.0562 µM [rising, full curve, poor fit].
On to `CCN(CC)c1ccc(NC(=S)NC(=O)c2cccs2)cc1`, for which the AC50 is, setting by setting: under setting [2], 14.1 µM [rising, single point]; under setting [1], 15.8 µM [rising, single point].
In the case of `CCOc1ccc(-c2c(C)nn3c(C)c(C(=O)NCCN(C)C)cnc23)cc1OCC`, the AC50 under setting [1] is 0.00501 µM [falling, full curve, poor fit].
For `O=c1c(-c2ccccc2)c1-c1ccccc1`, the AC50 by setting is: under setting [2], 4.47 µM [rising, single point]; under setting [1], 35.5 µM [falling, partial curve, poor fit].
Take `COc1ccc2c(c1)-c1c(sn(-c3ccccc3)c1=S)C(C)(C)N2`: the concentration at half-maximal activity (AC50) is 14.1 µM [rising, single point] under setting [2] and 14.1 µM [rising, single point] under setting [1].

For orientation: AC50 means the concentration giving half of the maximal activity seen.
